No constants are given. Whether binding was seen depends on the method and setting. Binding seen in cells or lysates may run through a third protein. Here binding means that the protein was enriched with, or labelled near, the bait; the list need not be complete.
Target: Tau (endogenous, mouse brain) (mouse (endogenous in mouse brain)) (UniProt P10637)
Assay: affinity purification with mass spectrometry; differential co-immunoprecipitation of endogenous Tau from total mouse brain homogenates with three polyclonal anti-Tau antibodies and control antibodies cross-linked to Sepharose beads; iTRAQ quantitative mass spectrometry, four IP experiments

Amino acid sequences for entries named in this document (tags omitted). A change or cut given only in a name is not applied to a line headed by its entry.
UniProt P10637: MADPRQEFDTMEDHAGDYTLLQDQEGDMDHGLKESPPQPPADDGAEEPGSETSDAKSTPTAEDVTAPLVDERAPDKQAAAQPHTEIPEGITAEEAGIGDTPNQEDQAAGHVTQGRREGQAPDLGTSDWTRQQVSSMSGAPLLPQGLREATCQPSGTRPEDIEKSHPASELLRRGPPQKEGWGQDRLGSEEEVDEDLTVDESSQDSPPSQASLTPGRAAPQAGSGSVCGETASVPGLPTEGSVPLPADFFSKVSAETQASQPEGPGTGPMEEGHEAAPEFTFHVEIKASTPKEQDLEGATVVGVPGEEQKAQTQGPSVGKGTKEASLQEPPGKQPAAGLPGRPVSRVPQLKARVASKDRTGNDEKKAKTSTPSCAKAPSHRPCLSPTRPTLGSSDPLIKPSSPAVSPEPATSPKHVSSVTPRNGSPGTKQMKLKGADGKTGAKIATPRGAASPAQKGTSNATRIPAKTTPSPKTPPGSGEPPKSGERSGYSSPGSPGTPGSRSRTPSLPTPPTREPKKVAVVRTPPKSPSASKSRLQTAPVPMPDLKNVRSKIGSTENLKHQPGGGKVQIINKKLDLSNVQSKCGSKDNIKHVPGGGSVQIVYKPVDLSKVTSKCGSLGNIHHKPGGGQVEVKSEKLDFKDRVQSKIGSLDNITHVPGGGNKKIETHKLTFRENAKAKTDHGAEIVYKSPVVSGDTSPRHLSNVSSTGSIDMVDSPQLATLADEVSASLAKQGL
UniProt P70398: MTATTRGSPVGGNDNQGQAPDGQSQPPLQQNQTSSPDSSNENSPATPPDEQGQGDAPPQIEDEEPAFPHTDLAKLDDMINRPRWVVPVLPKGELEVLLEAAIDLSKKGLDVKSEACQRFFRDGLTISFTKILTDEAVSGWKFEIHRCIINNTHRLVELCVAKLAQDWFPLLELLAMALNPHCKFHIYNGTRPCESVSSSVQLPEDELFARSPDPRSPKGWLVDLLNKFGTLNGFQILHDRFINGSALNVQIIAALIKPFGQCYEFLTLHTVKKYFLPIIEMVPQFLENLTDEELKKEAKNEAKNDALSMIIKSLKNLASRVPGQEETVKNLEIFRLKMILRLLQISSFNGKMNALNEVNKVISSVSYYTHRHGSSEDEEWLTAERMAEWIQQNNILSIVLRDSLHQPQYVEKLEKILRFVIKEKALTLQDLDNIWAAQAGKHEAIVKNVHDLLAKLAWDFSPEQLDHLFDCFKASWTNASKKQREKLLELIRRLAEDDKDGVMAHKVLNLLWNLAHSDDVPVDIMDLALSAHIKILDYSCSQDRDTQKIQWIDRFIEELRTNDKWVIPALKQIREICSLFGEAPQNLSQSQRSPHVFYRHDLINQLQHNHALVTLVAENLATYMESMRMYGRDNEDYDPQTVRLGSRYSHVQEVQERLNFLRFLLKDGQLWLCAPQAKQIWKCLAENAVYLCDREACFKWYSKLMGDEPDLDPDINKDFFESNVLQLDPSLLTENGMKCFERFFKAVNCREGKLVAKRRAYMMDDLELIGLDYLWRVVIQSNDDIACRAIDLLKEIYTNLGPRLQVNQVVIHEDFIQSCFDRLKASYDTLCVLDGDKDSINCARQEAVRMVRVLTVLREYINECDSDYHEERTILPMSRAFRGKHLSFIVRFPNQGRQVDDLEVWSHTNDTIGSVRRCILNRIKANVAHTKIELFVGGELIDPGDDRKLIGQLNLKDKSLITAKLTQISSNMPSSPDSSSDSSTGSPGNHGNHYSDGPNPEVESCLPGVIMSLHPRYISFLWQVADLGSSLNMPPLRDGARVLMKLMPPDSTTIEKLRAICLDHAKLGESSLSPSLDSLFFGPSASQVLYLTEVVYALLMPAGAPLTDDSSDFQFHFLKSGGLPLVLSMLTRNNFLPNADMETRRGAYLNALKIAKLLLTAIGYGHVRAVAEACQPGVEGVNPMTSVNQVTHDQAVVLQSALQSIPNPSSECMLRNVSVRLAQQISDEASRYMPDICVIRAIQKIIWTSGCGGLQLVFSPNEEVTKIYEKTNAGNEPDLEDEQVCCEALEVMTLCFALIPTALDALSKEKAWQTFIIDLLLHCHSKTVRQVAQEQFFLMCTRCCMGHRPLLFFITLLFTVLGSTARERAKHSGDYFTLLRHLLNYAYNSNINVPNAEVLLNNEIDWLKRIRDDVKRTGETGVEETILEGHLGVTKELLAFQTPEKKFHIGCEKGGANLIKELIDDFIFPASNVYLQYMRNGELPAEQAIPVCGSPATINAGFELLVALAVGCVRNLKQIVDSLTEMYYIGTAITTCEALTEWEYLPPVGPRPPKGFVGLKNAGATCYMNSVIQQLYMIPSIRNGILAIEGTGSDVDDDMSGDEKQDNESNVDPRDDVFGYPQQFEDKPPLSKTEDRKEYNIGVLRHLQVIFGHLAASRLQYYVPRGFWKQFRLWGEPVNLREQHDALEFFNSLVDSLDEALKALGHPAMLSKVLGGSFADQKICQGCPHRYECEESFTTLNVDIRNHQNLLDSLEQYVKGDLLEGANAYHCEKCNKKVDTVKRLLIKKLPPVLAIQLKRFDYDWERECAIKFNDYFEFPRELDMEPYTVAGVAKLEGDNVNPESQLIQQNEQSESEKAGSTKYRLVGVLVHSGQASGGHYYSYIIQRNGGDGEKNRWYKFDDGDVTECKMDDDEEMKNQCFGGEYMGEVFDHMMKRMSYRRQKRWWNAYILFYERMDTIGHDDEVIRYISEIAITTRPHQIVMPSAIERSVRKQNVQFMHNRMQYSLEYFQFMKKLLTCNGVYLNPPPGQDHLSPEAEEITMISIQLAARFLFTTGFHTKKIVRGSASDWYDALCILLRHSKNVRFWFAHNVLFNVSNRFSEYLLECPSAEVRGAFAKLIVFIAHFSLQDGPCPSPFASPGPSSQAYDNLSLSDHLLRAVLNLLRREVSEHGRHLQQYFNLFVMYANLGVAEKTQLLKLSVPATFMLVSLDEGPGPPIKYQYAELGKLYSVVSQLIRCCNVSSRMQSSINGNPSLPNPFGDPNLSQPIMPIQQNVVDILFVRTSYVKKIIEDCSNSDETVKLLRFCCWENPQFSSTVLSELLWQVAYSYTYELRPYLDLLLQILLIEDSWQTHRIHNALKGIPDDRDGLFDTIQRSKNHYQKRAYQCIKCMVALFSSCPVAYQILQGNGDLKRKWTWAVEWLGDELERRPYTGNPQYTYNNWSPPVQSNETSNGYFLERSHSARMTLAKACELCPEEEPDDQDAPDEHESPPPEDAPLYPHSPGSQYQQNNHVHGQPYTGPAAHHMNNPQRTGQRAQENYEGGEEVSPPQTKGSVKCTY
UniProt Q61699: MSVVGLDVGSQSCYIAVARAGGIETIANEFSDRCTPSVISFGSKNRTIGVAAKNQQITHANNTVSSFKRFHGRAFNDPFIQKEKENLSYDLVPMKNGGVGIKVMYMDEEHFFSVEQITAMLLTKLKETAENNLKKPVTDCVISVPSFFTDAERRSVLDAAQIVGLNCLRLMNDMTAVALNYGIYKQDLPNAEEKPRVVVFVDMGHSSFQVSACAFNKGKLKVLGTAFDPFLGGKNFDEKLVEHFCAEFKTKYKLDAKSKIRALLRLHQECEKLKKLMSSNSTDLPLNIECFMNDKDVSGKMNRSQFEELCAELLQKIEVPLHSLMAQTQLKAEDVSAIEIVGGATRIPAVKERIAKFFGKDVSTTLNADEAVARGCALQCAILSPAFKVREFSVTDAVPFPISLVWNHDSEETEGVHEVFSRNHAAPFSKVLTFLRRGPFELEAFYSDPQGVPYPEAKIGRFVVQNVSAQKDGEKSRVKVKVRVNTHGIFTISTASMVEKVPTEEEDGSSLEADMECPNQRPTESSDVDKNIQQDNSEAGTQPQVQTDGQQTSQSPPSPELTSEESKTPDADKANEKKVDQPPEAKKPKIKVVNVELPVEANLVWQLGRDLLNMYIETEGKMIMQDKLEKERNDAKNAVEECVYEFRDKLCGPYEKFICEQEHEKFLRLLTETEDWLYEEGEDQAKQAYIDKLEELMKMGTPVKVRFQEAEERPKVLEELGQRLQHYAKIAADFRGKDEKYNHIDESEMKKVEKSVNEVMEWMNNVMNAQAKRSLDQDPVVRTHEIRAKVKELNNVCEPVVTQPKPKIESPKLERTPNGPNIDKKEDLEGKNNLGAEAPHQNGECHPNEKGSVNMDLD
UniProt P56399: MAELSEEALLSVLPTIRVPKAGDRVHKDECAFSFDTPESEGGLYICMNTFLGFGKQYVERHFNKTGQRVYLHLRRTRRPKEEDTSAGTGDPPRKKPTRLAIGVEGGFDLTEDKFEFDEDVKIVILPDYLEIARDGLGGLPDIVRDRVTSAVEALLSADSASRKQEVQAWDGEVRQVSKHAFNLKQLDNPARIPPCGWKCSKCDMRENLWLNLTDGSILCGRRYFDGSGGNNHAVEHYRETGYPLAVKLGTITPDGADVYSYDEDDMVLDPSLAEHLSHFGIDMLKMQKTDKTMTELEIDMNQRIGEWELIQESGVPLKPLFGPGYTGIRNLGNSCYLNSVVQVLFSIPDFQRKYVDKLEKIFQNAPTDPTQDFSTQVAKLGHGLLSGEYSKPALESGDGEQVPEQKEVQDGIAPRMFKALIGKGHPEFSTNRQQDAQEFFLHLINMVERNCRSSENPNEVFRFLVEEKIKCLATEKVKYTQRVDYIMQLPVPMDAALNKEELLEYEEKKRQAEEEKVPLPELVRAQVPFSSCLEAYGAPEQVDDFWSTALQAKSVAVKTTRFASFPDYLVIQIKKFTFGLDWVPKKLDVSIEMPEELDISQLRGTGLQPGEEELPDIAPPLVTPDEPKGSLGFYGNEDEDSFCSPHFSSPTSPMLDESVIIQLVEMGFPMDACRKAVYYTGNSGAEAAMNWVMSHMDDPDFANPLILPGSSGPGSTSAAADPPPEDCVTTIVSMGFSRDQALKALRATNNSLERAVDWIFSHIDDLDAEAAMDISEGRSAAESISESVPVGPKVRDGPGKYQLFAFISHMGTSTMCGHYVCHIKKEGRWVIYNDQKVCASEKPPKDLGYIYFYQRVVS

With “USP9x (from UniProt P70398 1-2559) (enzyme)” as the substance, how does the binding read?
Its binding is “binds”.

Which binding does the source give for “Hsp110 (Hsp110) (from UniProt Q61699 1-858)” here?
The binding was “binds”.

Which binding does the source give for “USP5 (from UniProt P56399 1-858) (enzyme)” here?
The binding was “binds”.

Source: publication PMC5390007
